Measured values: PMC10560259

The chains behind the UniProt entries cited, without tags or fusion partners.
UniProt O94763: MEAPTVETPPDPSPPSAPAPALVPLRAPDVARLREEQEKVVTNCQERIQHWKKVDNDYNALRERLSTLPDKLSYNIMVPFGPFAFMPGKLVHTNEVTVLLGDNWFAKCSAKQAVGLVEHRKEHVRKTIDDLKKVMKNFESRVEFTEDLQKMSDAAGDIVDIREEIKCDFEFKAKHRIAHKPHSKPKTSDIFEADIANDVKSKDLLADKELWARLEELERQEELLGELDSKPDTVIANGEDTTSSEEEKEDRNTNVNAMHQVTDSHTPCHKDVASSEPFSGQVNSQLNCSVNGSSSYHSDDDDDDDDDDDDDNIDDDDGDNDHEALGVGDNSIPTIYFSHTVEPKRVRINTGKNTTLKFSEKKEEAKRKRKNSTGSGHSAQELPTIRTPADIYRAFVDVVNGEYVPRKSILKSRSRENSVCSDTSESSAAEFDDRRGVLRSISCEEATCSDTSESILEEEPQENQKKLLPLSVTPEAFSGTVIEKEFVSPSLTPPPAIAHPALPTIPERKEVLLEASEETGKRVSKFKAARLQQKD
UniProt Q13263: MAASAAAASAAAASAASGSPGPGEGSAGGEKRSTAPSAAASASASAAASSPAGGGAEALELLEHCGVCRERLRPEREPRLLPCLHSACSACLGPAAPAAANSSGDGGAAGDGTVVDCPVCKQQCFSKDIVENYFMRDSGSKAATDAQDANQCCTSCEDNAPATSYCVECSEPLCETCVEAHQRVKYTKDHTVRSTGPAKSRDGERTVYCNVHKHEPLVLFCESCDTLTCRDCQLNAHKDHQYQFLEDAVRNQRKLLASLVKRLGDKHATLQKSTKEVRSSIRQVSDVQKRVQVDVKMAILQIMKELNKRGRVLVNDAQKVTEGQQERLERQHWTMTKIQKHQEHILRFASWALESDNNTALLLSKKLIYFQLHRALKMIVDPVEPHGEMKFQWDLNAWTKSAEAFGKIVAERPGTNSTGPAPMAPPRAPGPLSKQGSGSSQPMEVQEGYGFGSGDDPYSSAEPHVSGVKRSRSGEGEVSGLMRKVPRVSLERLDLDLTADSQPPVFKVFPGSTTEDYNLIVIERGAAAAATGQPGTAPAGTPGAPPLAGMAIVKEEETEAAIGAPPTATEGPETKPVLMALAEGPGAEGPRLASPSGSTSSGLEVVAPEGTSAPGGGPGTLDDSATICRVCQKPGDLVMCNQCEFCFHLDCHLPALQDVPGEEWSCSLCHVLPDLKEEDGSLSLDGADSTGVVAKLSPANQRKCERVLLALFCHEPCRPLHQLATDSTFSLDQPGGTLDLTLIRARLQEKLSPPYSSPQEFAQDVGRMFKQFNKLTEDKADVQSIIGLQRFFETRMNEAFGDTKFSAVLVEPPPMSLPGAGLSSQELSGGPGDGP
UniProt P45974: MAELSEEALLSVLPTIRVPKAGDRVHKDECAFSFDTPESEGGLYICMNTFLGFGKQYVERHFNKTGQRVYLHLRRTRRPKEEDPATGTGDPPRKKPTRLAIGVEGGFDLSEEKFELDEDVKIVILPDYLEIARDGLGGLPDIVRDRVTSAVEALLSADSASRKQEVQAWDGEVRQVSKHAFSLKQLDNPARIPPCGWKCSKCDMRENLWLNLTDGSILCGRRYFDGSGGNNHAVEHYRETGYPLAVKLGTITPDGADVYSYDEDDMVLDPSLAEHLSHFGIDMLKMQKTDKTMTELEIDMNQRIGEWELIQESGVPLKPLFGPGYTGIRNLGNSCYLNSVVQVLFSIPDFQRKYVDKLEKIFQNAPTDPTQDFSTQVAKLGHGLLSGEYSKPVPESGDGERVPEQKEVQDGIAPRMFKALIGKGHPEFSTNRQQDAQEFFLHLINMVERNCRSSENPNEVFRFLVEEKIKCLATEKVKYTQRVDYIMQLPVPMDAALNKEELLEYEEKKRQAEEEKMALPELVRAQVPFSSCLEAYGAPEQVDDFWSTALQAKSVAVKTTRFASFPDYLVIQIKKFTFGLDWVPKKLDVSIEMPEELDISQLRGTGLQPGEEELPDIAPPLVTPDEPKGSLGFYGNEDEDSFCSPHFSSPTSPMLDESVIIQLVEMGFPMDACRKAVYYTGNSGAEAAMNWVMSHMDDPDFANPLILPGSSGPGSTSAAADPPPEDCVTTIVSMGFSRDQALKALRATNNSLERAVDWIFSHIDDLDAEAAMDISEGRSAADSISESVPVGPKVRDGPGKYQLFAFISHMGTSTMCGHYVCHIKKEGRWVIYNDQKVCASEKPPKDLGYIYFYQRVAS
UniProt Q93009: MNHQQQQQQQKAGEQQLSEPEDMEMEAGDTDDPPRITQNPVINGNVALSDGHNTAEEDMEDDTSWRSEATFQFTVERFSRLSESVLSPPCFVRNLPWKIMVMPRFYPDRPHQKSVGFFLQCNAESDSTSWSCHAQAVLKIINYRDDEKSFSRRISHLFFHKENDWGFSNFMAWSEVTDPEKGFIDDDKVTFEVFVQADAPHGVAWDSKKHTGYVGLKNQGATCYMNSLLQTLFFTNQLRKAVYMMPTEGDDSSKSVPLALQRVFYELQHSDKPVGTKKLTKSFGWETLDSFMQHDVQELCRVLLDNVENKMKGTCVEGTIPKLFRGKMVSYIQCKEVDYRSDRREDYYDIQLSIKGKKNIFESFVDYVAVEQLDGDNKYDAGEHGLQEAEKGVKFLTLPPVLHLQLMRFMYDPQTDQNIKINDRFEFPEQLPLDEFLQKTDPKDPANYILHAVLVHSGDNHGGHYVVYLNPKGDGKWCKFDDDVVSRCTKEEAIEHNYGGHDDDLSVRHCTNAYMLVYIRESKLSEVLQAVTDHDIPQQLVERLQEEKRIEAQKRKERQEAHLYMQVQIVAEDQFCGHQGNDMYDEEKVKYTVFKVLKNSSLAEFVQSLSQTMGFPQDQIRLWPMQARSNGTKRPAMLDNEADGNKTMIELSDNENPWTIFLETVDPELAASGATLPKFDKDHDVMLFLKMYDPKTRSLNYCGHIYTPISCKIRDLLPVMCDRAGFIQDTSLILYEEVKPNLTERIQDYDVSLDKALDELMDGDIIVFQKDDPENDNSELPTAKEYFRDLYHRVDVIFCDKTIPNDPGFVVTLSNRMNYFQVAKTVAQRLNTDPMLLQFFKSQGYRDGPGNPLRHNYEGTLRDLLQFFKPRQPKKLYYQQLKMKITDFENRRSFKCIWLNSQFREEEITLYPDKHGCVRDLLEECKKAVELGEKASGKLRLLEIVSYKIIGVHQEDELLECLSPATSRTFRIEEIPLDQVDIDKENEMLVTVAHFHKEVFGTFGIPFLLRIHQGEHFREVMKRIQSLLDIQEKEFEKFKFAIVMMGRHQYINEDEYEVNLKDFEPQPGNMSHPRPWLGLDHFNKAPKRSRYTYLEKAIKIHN

Biological target: unconventional prefoldin RPB5 interactor (URI), His-tagged, expressed in HEK293T (UniProt O94763)
Test: affinity purification with mass spectrometry; HEK293T cells transfected with His-URI plasmid, anti-His immunoprecipitation, gel cutting, LC-MS/MS

binding, binds:
TRIM28, endogenous in HEK293T (from UniProt Q13263 1-835)
USP5, endogenous in HEK293T (from UniProt P45974 1-858)
USP7, endogenous in HEK293T (from UniProt Q93009 1-1102)

No constants are given. Whether binding was seen depends on the method and setting. In cells and extracts the contact can be indirect. These calls come from enrichment with a bait or labelling near it, and not all partners need be listed.
